Laboratory results: US12029716B2, “Derivatives of korormicin useful as antibiotics” (Viotika Life Sciences Inc., priority 2015, dated 2024)

Test system: Chlamydia trachomatis
Experiment: C. trachomatis infection of HeLa cells (chlamydial inclusions, immunocytochemistry)
Type: cell-based
Method: Chlamydia trachomatis (C. trachomatis) propagation and treatment were carried out as follows. C. trachomatis was propagated in HeLa cells. The titer of C. trachomatis was determined in cyclohexamide-treated HeLa cells, and concentrations used were expressed as inclusion forming units (IFU) per mL.
Assessment of the level of infection was determined as follows. HeLa cells were seeded on glass coverslips in 24-well plates at 3×10^4 cells/well and inoculated with C. trachomatis and then treated with antibiotic (or other compounds of interest). After 48 hours, the infected cells were fixed with 100% methanol and then incubated with anti-Chlamydia monoclonal antibody. Inclusion bodies were visualized by staining with FITC-conjugated secondary antibody and DAPI as counterstaining. The samples were examined by a fluorescence microscopy. Number of inclusions was calculated per 100 cells.
Assessment of antichlamydial activity of Korormicin (Scheme shown in FIG. 1) and PEG-2 (Scheme shown in FIG. 2) were performed as follows. Cells were infected with C. trachomatis and treated with different concentrations of antibiotic of choice. After 48 h of C. trachomatis was collected (P1) and used to infect fresh cells. Subsequent collections of C. trachomatis were used to obtain P2, P3, P4 and P5 stocks of C. trachomatis. […]

Compound: CCCCCCCC[C@H]1O[C@H]1C/C=C/C=C\[C@H](O)CC(=O)NC1=C[C@](C)(CC)OC1=O [Korormicin, (3R,4Z,6E)-N-[(5S)-5-Ethyl-5-methyl-2-oxo-2,5-dihydro-3-furanyl]-3-hydroxy-8-[(2S,3R)-3-octyl-2-oxiranyl]-4,6-octadienamide]
- MIC50 in excess of effective inhibitory concentration measured for isolated Na+-NQR: approximately six orders of magnitude
